# Data from PubChem BioAssay AID651640 (Broad Institute, 2012).
# Values joined by “and” are separate entries in the source; they are usually repeats but may differ in a detail not shown here. Equal entries are not always repeated. Screen size: about 350,000 compounds; about 6,000 (1.7%) were called active. The shares of active, inactive and inconclusive entries below differ from those in the screen. No stated cut-off is given here; in the data, active means CPE inhibition above about 20% (passing the limit was not always enough); inconclusive means no clear call, values can overlap the other calls; tested in BHK-21 cells. Some structures have more than one record in an assay (separate samples or runs), and their calls can disagree.
# Test: protection of cells from dengue 2 killing – plate reader, single concentration, primary screen (AID 651640);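 further: 0% = median of neutral control wells and 100% = median of positive control wells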
# Conditions: DENV2-infected cells, cytopathic effect rescue, at 9.99 µM, stronger effect = higher value
row,Structure (SMILES),CPE inhibition
1,COC(=O)[C@H]1C[C@@H]1[C@H](NC(=O)c1cccnc1)c1ccccc1,inconclusive: 62.3%
2,CCOC(=O)[C@H]1[C@H]2COc3ccccc3[C@@H]2N2C(=O)CN(Cc3ccc(C)cc3)C(=O)[C@@]12C,inconclusive: 48.2%
3,CO[C@@H]1CN(C)C(=O)c2cc(NS(=O)(=O)c3ccccc3C)ccc2OC[C@@H](C)NC[C@H]1C,inactive: 9%
4,Cc1ccc(S(=O)(=O)N(C)C[C@H]2Oc3c(NC(=O)Nc4ccccc4)cccc3C(=O)N([C@H](C)CO)C[C@@H]2C)cc1,inactive: 2.68%
5,N#Cc1c(N)[nH]c(C(=O)c2ccccc2)c1-c1ccc(Br)cc1,active: 57.1%
6,O=C(CCC(=O)c1ccccc1)NC1CCCN(Cc2ccccc2F)C1 (centres undefined),inconclusive: 26.3%
7,CCNC(=O)Cc1ccc(S(=O)(=O)N2CCOCC2)s1,inconclusive: 32.2%
8,COC(=O)C[C@H]1C[C@H]2c3cc(NC(=O)C4CCOCC4)ccc3O[C@H]2[C@H](CO)O1,active: 45.1% and active: 45.5%
9,O=C(NCC[C@@H]1CC[C@@H](NS(=O)(=O)c2cccc(F)c2)[C@@H](CO)O1)C1CCOCC1,inactive: 6.27%
10,CN(C)C(=O)c1cccc(-c2ccc([C@H]3[C@H]4CN(C(=O)CC5CC5)CC(=O)N4[C@H]3CO)cc2)c1,active: 20.8%
11,CC(C)OCCCn1c(SC(C)C(=O)NCC2CCCO2)nc2cc(Cl)ccc2c1=O (centres undefined),inconclusive: 20.5%
12,Cc1cccc(OCCCCCN2CCOCC2)c1C,inconclusive: 37.7%
13,CO[C@H]1CN(C)C(=O)c2cc(NC(=O)C3CC3)ccc2OC[C@H](C)N(C(=O)c2ccccc2F)C[C@@H]1C,inactive: 0.262%
14,O=C(NCc1ccccc1)[C@H]1[C@H](CO)[C@H]2Cn3c(cccc3=O)[C@@H]1N2Cc1cccnc1,inactive: 5.75%
15,CCC(Oc1ccccc1)C(=O)Nc1cc(C)on1 (centres undefined),inconclusive: 22.6%
16,O=C(Cc1ccc(NC(=O)C2CCCN(C(=O)C3CC3)C2)cc1)Nc1cccc(C(=O)N2CCCC2)c1 (centres undefined),active: 62.1%
17,CCC(=O)N1C[C@@H]2[C@H](c3ccccc31)[C@H](CO)N2Cc1ccccc1OC,active: 35.1%
18,C[C@@H]1CCCCO[C@@H](CN(C)Cc2ccccc2)[C@@H](C)CN([C@H](C)CO)C(=O)c2cc(NC(=O)Nc3cccc4ccccc34)ccc2O1,active: 21% and inactive: -6.14%
19,CN(C)C(=O)c1cccc(-c2ccc3c(c2)[C@@H]2[C@@H](CCN2C(=O)c2cccc(F)c2)[C@H](CO)N3C)c1,active: 39%
20,CC1=C(C(=O)Nc2cccc(C(=O)NC3CCCC(C)C3C)c2)SCCO1 (centres undefined),inconclusive: 73.6%
21,O=C(NC1CCC1)[C@H]1[C@H](CO)[C@H]2Cn3c(ccc(C4=CCCCC4)c3=O)[C@H]2N1C(=O)C1CCOCC1,active: 64.5%
22,CCN(CC)CCNC(=O)c1ccc(NC(=O)c2ccccc2-c2ccc(C(F)(F)F)cc2)cc1,inconclusive: 23.2%

row,Structure (SMILES),CPE inhibition
1,CC1(C(=O)NS(=O)(=O)c2ccc(Cl)cc2)CCN1C(=O)C1CCCCC1 (centres undefined),inconclusive: 35.8%
2,CSc1ccccc1NC(=O)CN(C)C(=O)/C=C/c1ccccc1,inconclusive: 45.3%
3,COc1ccccc1CNS(=O)(=O)CCNCCc1ccccc1,inconclusive: 33.7%
4,C[C@@H]1CCCCO[C@H](CN(C)C(=O)C2CCCCC2)[C@@H](C)CN([C@@H](C)CO)C(=O)c2cc(NC(=O)Nc3cccc4ccccc34)ccc2O1,active: 26.2%
5,O=S(=O)(c1ccccc1)N1C[C@@H]2[C@H](c3ccccc31)[C@H](CO)N2Cc1ccccc1,inactive: 19%
6,CCO[C@H]1OC(C(=O)Nc2ccccc2)=C[C@@H](c2coc3ccccc3c2=O)[C@@H]1CCCO,active: 23.3%
7,COCC#Cc1ccc2c(c1)O[C@@H](CN(C)C(=O)CN(C)C)[C@H](C)CN([C@@H](C)CO)S2(=O)=O,inactive: 16.6%
8,CS(=O)(=O)c1ccc(NC(=O)CCCc2nc3ccccc3c(=O)[nH]2)cc1,inconclusive: 50.6%
9,COC(=O)C[C@@H]1CC[C@@H](NC(=O)Nc2ccc(C(F)(F)F)cc2)[C@H](CO)O1,inconclusive: 26.4%
10,C[C@@H]1CCCCO[C@@H](CN(C)S(=O)(=O)c2cn(C)cn2)[C@@H](C)CN([C@@H](C)CO)C(=O)c2cc(NS(C)(=O)=O)ccc2O1,inactive: 6.9%
11,COc1ccc(OC)c(NC(=O)CSc2nnc(CNC(=O)c3cc(OC)c(OC)c(OC)c3)o2)c1,inactive: -0.005%
12,CN1CCN(c2ccccc2NC(=O)c2ccc(-c3cccc(Cl)c3)o2)CC1,inconclusive: 49.1%
13,CC[C@H](NC(=O)[C@H]1O[C@@H](n2cnc3c(=O)[nH]c(N)nc32)[C@H](O)[C@@H]1O)c1ccccc1,inconclusive: 39.5%
14,C[C@@H]1CCCCO[C@@H](CN(C)Cc2ccc(Cl)c(Cl)c2)[C@@H](C)CN([C@@H](C)CO)C(=O)c2cc(NC(=O)NC3CCCCC3)ccc2O1,inactive: -1.22%
15,CC(Oc1ncnc2ccccc12)C(=O)Nc1cccc(S(=O)(=O)N2CCOCC2)c1 (centres undefined),inactive: -5.58%
16,CC(C)C(=O)Nc1ccc2c(c1)C(=O)N(C)[C@@H]1CC[C@@H](CC(=O)Nc3ccccc3)O[C@@H]1CO2,inconclusive: 30.1%
17,C[C@@H]1CN([C@@H](C)CO)C(=O)c2cccc(NC(=O)Nc3ccc(F)cc3)c2O[C@H]1CN(C)C(=O)Nc1ccc2c(c1)OCO2,inactive: 1.69%
18,O=C(N[C@H]1C=C[C@H](CC(=O)N2CCOCC2)O[C@H]1CO)c1ccccn1,inactive: 5.92%
19,COc1ccc2c3c([nH]c2c1)[C@H](CO)N(Cc1ccccc1OC)CC31CN(S(C)(=O)=O)C1,inconclusive: 84.1%
20,COc1ccc2nc(NC(=O)C(NS(=O)(=O)c3cccc4nsnc34)C(C)C)sc2c1 (centres undefined),inconclusive: 24.9%
21,CC(C)C(=O)Nc1ccc2c(c1)C(=O)N(C)[C@H]1CC[C@@H](CC(=O)NCc3cccc(F)c3)O[C@@H]1CO2,inconclusive: 24.1%
22,CCOC(=O)C1=CCN(S(=O)(=O)c2cccc(Cl)c2)C1c1cccc(Cl)c1 (centres undefined),inactive: -1.85%

# 3 compounds out of the list, arranged by count of non-hydrogen atoms, smallest number first.
row,Structure (SMILES),CPE inhibition
18,O=C(N[C@H]1C=C[C@H](CC(=O)N2CCOCC2)O[C@H]1CO)c1ccccn1,inactive: 5.92%
9,O=C(NCC[C@@H]1CC[C@@H](NS(=O)(=O)c2cccc(F)c2)[C@@H](CO)O1)C1CCOCC1,inactive: 6.27%
19,CN(C)C(=O)c1cccc(-c2ccc3c(c2)[C@@H]2[C@@H](CCN2C(=O)c2cccc(F)c2)[C@H](CO)N3C)c1,active: 39%
